Measured values from US20070271620A1, “Animal model for type II diabetes mellitus and Syndrome X and methods and uses thereof” (priority 2005, published 2007).

Test system: STZ (130 mg/kg) diabetic pigs
Assay: Two-week oral metformin treatment of STZ diabetic pigs: postprandial plasma glucose and insulin, body weight, urinary glucose excretion
Format: in vivo, pig
Method: Protocol 5: insulin-mediated whole body glucose disposal, after a two-week placebo or metformin (twice 1.5 g per day) oral treatment period under conditions of iso-energetic feeding, was studied with the hyperinsulinemic (2 mU/kg/minute) euglycemic clamp technique in 14 STZ (130 mg/kg) diabetic pigs.
Fasting blood samples were taken before the start of hyperinsulinemic clamp experiments and postprandial blood samples were taken two to three hours after a morning meal in the week following a clamp study.
Plasma insulin concentration was measured using a Delfia assay (test kit No. B080-1101 by Perkin Elmer Life Sciences, trust by Wallac Oy, Turku, Finland). This specific pig insulin assay was validated using pig insulin standards. Plasma and urine glucose concentrations were analyzed enzymically on an autoanalyzer of Radiometer (ABL and AML, Copenhagen, Denmark). Urine was collected in buckets containing 0.5 grams Halamid-d (sodium-p-toluenesulfonchloramide, Akzo Nobel Chemicals, Amersfoort, NL) to prevent microbial breakdown of glucose. Urine volume was registered over a given interval in order to calculate the rate of urinary glucose excretion. Urine samples (0.5 mL) were stored at −20° C. for later glucose analyses. Ketones (acetoacetic acid) were determined in fresh urine by a reagent strip test (Ketostix, Bayer Diagnostics, Mijdrecht, NL).

CN(C)C(=N)N=C(N)N [Metformin, metformin]
Body weight at end of treatment (metformin twice 1.5 g per day oral, two weeks): 40.7 ± 1.8 kg | Body weight gain (two-week metformin treatment, iso-energetic feeding): +4.4±1.1 kg
